PubChem BioAssay AID686943, Drosophila RNAi Screening Center | 2013

Assay: 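Knockdowns that increase or decrease active ERK after insulin receptor stimulation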 (primary screen)
Cell system: Drosophila S2R+ haemocyte-like cells expressing YFP-tagged ERK (Rolled)
Reagent: long dsRNA against Drosophila genes
Conditions: insulin stimulation versus unstimulated cells; dose and duration not given
Measured: 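Per-plate z-scores of phospho-ERK immunostaining normalised to YFP-tagged ERK, measured with and without insulin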
Direction: replicate 1, z-score of dpERK with insulin and replicate 2, z-score of dpERK with insulin: higher = more active ERK per ERK-YFP after insulin
The deposit covers about 23,000 reagents; shown is an unselected part of those that have a named target and a result. 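Extra replicates exist only for a retested subset of genes; insulin dose and duration not given; both raised and lowered dpERK matter.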 Not all columns of the deposit are shown. Not stated in the record: the amount of reagent, the time to read-out.

CG43740 [DRSC17848] gave replicate 1, z-score of dpERK with insulin -1.31; replicate 2, z-score of dpERK with insulin -0.41. CG43740 [DRSC17994] gave replicate 1, z-score of dpERK with insulin 0.61; replicate 2, z-score of dpERK with insulin 0.33. Depletion of CG15771 [DRSC18077] resulted in: replicate 1, z-score of dpERK with insulin 0.52; replicate 2, z-score of dpERK with insulin 0.22. TotX [DRSC22206] scored replicate 1, z-score of dpERK with insulin -1.28; replicate 2, z-score of dpERK with insulin -0.43.

Not a retest: entries from further up.
CG43740 [DRSC17994]: replicate 1, z-score of dpERK with insulin = 0.61; replicate 2, z-score of dpERK with insulin = 0.33
CG15771 [DRSC18077]: replicate 1, z-score of dpERK with insulin = 0.52; replicate 2, z-score of dpERK with insulin = 0.22

The listing continues.
With knock-down of gammaSnap1 [DRSC04686] the results were replicate 1, z-score of dpERK with insulin 0.74; replicate 2, z-score of dpERK with insulin 0.16. Knock-down of CG12637 [DRSC17845] came out at: replicate 1, z-score of dpERK with insulin -0.62; replicate 2, z-score of dpERK with insulin -0.2. CG8149 [DRSC16391] showed replicate 1, z-score of dpERK with insulin 0.37; replicate 2, z-score of dpERK with insulin 0.1. For rb [DRSC18826], the entry reads replicate 1, z-score of dpERK with insulin -0.15; replicate 2, z-score of dpERK with insulin -0.07. After knock-down of CG13700 [DRSC10049], the record shows replicate 1, z-score of dpERK with insulin -0.41; replicate 2, z-score of dpERK with insulin 0. With knock-down of CG30413 [DRSC04001] the results were replicate 1, z-score of dpERK with insulin -0.22; replicate 2, z-score of dpERK with insulin -0.02.

Depletion of Poxm [DRSC16793] resulted in: replicate 1, z-score of dpERK with insulin 0.93; replicate 2, z-score of dpERK with insulin 0.38. Silencing of Poxm [DRSC22839] resulted in: replicate 1, z-score of dpERK with insulin 0.57; replicate 2, z-score of dpERK with insulin 0.41.
